Measured values taken from paper PMC5766568 (Scientific Reports, 2018).

How the values were obtained:
[1] = peptide synthesis
[2] = system: ROS/singlet oxygen; experiment: Flow cytometry of ROS/singlet oxygen production with APF sensor; type: cell-based; conditions: from flow cytometry data of the PNA conjugates, corrected for extinction coefficients at irradiation wavelength (155000 AF555, 92000 TMR cm^−1 M^−1)

Row | Compound | final purity (method not given) ([1]; conjugation step) | also measured
1 | TAT-Lys(Deca)-Gly- CCT CTT ACC TCA GTT ACA-NH2 | – | final purity (method not given) ([1]; whole synthesis): 98%
2 | H-(D-Arg)8-Cys(TMR)-CCT CTT ACC TCA GTT ACA-NH2 | 97% | –
3 | H-(D-Arg)8-Cys(AF488)-CCT CTT ACC TCA GTT ACA-NH2 | 98% | –
4 | CN(C)c1ccc2c(-c3ccccc3C(=O)[O-])c3ccc(N(C)C)cc3[o+]c2c1 [TMR fluorophore, Tetramethylrhodamine] | – | quantum yield for singlet oxygen formation, TMR compared to AF555 [2]: 1.6 fold
5 | H- (D-Arg)8-Gly- CCT CTT ACC TCA GTT ACA-NH2 | – | final purity (method not given) ([1]; whole synthesis): 96%
6 | H-(D-Arg)8-Cys(Flm)-CCT CTT ACC TCA GTT ACA-NH2 | 98% | –
7 | H-(D-Arg)8-Cys(AF555)-CCT CTT ACC TCA GTT ACA-NH2 | 98% | –
